Tested on: hES cell derived embryoid bodies
Experiment: Comparison of potential hepatocyte differentiation agents; as to Induction of hepatocyte phenotype: key: +: Causes hepatocyte differentiation and selective elimination of other cell types; −: No inductive effect; ±: Mild inductive effect; may allow growth or survival of other cell types
Assay type: cell-based, human
Procedure: The effect of sodium butyrate was compared with other potential hepatocyte differentiation agents in a similar protocol. Embryoid bodies were cultured in suspension for 4 days, and then replated on plates coated with collagenase 1. The cells were then cultured in the presence of each compound for 6 days.

CC(C)CC(=O)O [Isovaleric acid]
Induction of hepatocyte phenotype (EBs 4 days in suspension, replated on plates coated with collagenase 1, cultured with each compound for 6 days, analogs at 5 mM): ±
Effect on hepatocyte differentiation (in words) (concentration of 5 mM, 6 days): effective in causing hepatocyte differentiation

From US7256042B2, “Process for making hepatocytes from pluripotent stem cells” (Geron Corporation, priority 2000, dated 2007)
